# In PubChem BioAssay AID296 (DTP/NCI, 2004):
# The list shows only some results of the screen, not a fair sample: it is rich in T/C values a quarter to a half above the control, in often repeated tests (any T/C) and in doses without a T/C. Other doses and runs of a compound stand elsewhere. T/C gives the treated animals as a percentage of the vehicle group. Schedule codes are those of the source, taken here to give the interval after Q, in days (D) or hours (H), and the number of doses after X. Some T/C values are followed by the survivors on the day toxicity was checked, most often the fifth; without a count, all were alive then. Some entries give survivors of the animals treated and no T/C: the source holds a T/C of zero for them, seemingly a mark for toxic or unscored doses. Counts of survivors are from the toxicity check (mostly the fifth day) where no day follows; animals may have died later.
# System: MX-1 breast xenograft, nude mice, tumor weight T/C
# Experiment: NCI In Vivo Anticancer Drug Screen. Data for tumor model Human Mammary Carcinoma MX-1 Xenograft (intrarenal inoculation) in NU/NU Swiss (nude) mice
# Settings: T/C endpoint: mean tumor weight change, higher T/C = larger tumour; for T/C: evaluated on day 11
# Method in brief: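 Read-out: treated (T) over vehicle control (C) ratio of survival or tumor size. Dosing in animals carrying the transplanted tumor.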
# [1] = dose: 600.0 mg/kg/injection, schedule: Q04DX003 (sc), vehicle: saline with Tween-80
# [2] = dose: 1200.0 mg/kg/injection, schedule: Q04DX003 (sc), vehicle: saline with Tween-80
smiles,measurement,setting,value
[Cl][Pt+2][Cl].[NH-]CC1(C[NH-])CCC1,survivor count,"dose: 25.0 mg/kg/injection, schedule: Q04DX003 (sc), vehicle: saline",3 of 6 on day 11
same,survivor count,"dose: 50.0 mg/kg/injection, schedule: Q04DX003 (sc), vehicle: saline",0 of 6 on day 11
same,survivor count,"dose: 50.0 mg/kg/injection, schedule: Q04DX003 (sc), vehicle: suspension in saline",0 of 6 on day 11
same,survivor count,"dose: 100.0 mg/kg/injection, schedule: Q04DX003 (sc), vehicle: suspension in saline",0 of 6 on day 11
same,survivor count,"dose: 200.0 mg/kg/injection, schedule: Q04DX003 (sc), vehicle: suspension in saline",0 of 6 on day 11
same,survivor count,"dose: 400.0 mg/kg/injection, schedule: Q04DX003 (sc), vehicle: suspension in saline",0 of 6 on day 11
CNc1nc(N(C)C)nc(N(C)C)n1,survivor count,"dose: 240.0 mg/kg/injection, schedule: Q01DX010 (sc), vehicle: water",0 of 3 on day 11
NC(Cc1ccc(N(CCCl)CCCl)cc1)C(=O)O (configuration not stated),survivor count,"dose: 80.0 mg/kg/injection, schedule: Q04DX003 (sc), vehicle: Klucel (hydroxypropylcellulose) (HPC)",0 of 6 on day 11
FC(F)(F)c1nc2nc(Cl)c(Cl)nc2[nH]1,survivor count,[1],0 of 6 on day 11
COc1cc2c[n+](C)c3c4cc5c(cc4ccc3c2cc1OC)OCO5,survivor count,"dose: 300.0 mg/kg/injection, schedule: Q04DX003 (sc), vehicle: saline with Tween-80",0 of 6 on day 11
same,survivor count,[1],0 of 6 on day 11
same,survivor count,[2],0 of 6 on day 11
Oc1cc2ccccc2c(-c2c(O)c(O)cc3ccccc23)c1O,T/C,[1],144 % of control
C=C(OP(=O)(OC)OC)Sc1ccccc1C,survivor count,"dose: 0.75 mg/kg/injection, schedule: Q04DX003 (sc), vehicle: Klucel (hydroxypropylcellulose) (HPC)",3 of 6 on day 11
same,survivor count,"dose: 0.8 mg/kg/injection, schedule: Q04DX003 (sc), vehicle: Klucel (hydroxypropylcellulose) (HPC)",2 of 6 on day 11
same,survivor count,"dose: 1.5 mg/kg/injection, schedule: Q04DX003 (sc), vehicle: Klucel (hydroxypropylcellulose) (HPC)",0 of 6 on day 11
same,survivor count,"dose: 1.6 mg/kg/injection, schedule: Q04DX003 (sc), vehicle: Klucel (hydroxypropylcellulose) (HPC)",0 of 6 on day 11
same,survivor count,"dose: 3.0 mg/kg/injection, schedule: Q04DX003 (sc), vehicle: Klucel (hydroxypropylcellulose) (HPC)",0 of 6 on day 11
same,survivor count,"dose: 6.0 mg/kg/injection, schedule: Q04DX003 (sc), vehicle: Klucel (hydroxypropylcellulose) (HPC)",0 of 6 on day 11
same,survivor count,"dose: 150.0 mg/kg/injection, schedule: Q04DX003 (sc), vehicle: Klucel (hydroxypropylcellulose) (HPC)",0 of 6 on day 11
same,survivor count,"dose: 300.0 mg/kg/injection, schedule: Q04DX003 (sc), vehicle: Klucel (hydroxypropylcellulose) (HPC)",0 of 6 on day 11
same,survivor count,"dose: 600.0 mg/kg/injection, schedule: Q04DX003 (sc), vehicle: Klucel (hydroxypropylcellulose) (HPC)",0 of 6 on day 11
same,survivor count,"dose: 1200.0 mg/kg/injection, schedule: Q04DX003 (sc), vehicle: Klucel (hydroxypropylcellulose) (HPC)",0 of 6 on day 11
CN(CCN(C)C(=O)CCOS(C)(=O)=O)C(=O)CCOS(C)(=O)=O,survivor count,"dose: 400.0 mg/kg/injection, schedule: Q04DX003 (sc), vehicle: saline with Tween-80",0 of 6 on day 11
CC1(C)N=C(N)N=C(N)N1c1ccc(CCCCc2ccc(S(=O)(=O)F)cc2Cl)c(Cl)c1,survivor count,"dose: 100.0 mg/kg/injection, schedule: Q01DX010 (sc), vehicle: suspension in saline",0 of 3 on day 11
O=C([O][Bi]([c]1ccccc1)[c]1ccccc1)c1ccccc1,survivor count,"dose: 200.0 mg/kg/injection, schedule: Q04DX003 (ip), vehicle: Klucel (hydroxypropylcellulose) (HPC)",2 of 6 on day 11
CC(=O)Nc1ccc(S(=O)(=O)CO)cc1,T/C,[2],141 % of control
same,survivor count,"dose: 2400.0 mg/kg/injection, schedule: Q04DX003 (sc), vehicle: saline with Tween-80",1 of 6 on day 11
COc1cccc2c1C(=O)c1c(O)c3c(c(O)c1C2=O)C[C@@](O)(/C(CO)=N/NC(=O)c1ccc(Cl)c(Cl)c1)C[C@@H]3OC1CC(N)C(O)C(C)O1 (some centres not stated),survivor count,"dose: 16.0 mg/kg/injection, schedule: Q01DX010 (sc), vehicle: water",1 of 3 on day 11
same,survivor count,"dose: 32.0 mg/kg/injection, schedule: Q01DX010 (sc), vehicle: water",1 of 3 on day 11
same,survivor count,"dose: 64.0 mg/kg/injection, schedule: Q01DX010 (sc), vehicle: water",0 of 3 on day 11
CCC(C)Nc1ccc(N)cc1 (configuration not stated),T/C,"dose: 9.0 mg/kg/injection, schedule: Q04DX003 (sc), vehicle: Klucel (hydroxypropylcellulose) (HPC)",149 % of control
same,survivor count,"dose: 36.0 mg/kg/injection, schedule: Q04DX003 (sc), vehicle: Klucel (hydroxypropylcellulose) (HPC)",2 of 6 on day 11
NC(=O)/C=C/C(=O)c1c(Cl)cccc1Cl,T/C,"dose: 18.0 mg/kg/injection, schedule: Q04DX003 (sc), vehicle: saline with Tween-80",126 % of control
same,survivor count,"dose: 72.0 mg/kg/injection, schedule: Q04DX003 (sc), vehicle: saline with Tween-80",0 of 6 on day 11
COc1ccc2c(c1)CCC(c1ccccc1)=C2c1ccc(OCCN2CCCC2)cc1,survivor count,"dose: 200.0 mg/kg/injection, schedule: Q04DX003 (sc), vehicle: Klucel (hydroxypropylcellulose) (HPC)",1 of 6 on day 11
same,survivor count,"dose: 400.0 mg/kg/injection, schedule: Q04DX003 (sc), vehicle: Klucel (hydroxypropylcellulose) (HPC)",0 of 6 on day 11
same,survivor count,"dose: 800.0 mg/kg/injection, schedule: Q04DX003 (sc), vehicle: Klucel (hydroxypropylcellulose) (HPC)",0 of 6 on day 11
same,survivor count,"dose: 1600.0 mg/kg/injection, schedule: Q04DX003 (sc), vehicle: Klucel (hydroxypropylcellulose) (HPC)",1 of 6 on day 11
N=C(N)CCCCCCCCC(=N)N,T/C,"dose: 4.69 mg/kg/injection, schedule: Q04DX003 (sc), vehicle: saline",146 % of control
same,T/C,"dose: 9.38 mg/kg/injection, schedule: Q04DX003 (sc), vehicle: saline",140 % of control
same,survivor count,"dose: 37.5 mg/kg/injection, schedule: Q04DX003 (sc), vehicle: saline",3 of 6 on day 11
C[n+]1ccc(Nc2ccc(NC(=O)c3ccc(Nc4cc[n+](C)c5ccc(N)cc45)cc3)cc2)cc1,survivor count,"dose: 100.0 mg/kg/injection, schedule: Q04DX003 (sc), vehicle: distilled water + Tween-80",2 of 6 on day 11
same,survivor count,"dose: 200.0 mg/kg/injection, schedule: Q04DX003 (sc), vehicle: distilled water + Tween-80",1 of 6 on day 11
same,survivor count,"dose: 400.0 mg/kg/injection, schedule: Q04DX003 (sc), vehicle: distilled water + Tween-80",0 of 6 on day 11
CCCC(=O)Nc1ncnc2c1ncn2C1OC2COP(=O)(O)OC2C1OC(=O)CCC (configuration not stated),T/C,"dose: 100.0 mg/kg/injection, schedule: Q01DX010 (sc), vehicle: saline",137 % of control
same,T/C,"dose: 800.0 mg/kg/injection, schedule: Q01DX010 (sc), vehicle: saline",141 % of control [2 of 3 alive on day 11]
COC(=O)NC1C(C)OC(OC2C/C=C(/C)C3C=CC4C(OC5CC(OC6CCC(OC7CC(O)C(OC8CCC(O)C(C)O8)C(C)O7)C(C)O6)C(OC(C)=O)C(C)O5)C(C)CC(C)C4C3(C)/C(O)=C3/C(=O)OC4(CC(C=O)=CC(O)C4/C=C\2C)C3=O)CC1(C)[N+](=O)[O-] (configuration not stated),T/C,"dose: 12.5 mg/kg/injection, schedule: Q04DX003 (sc), vehicle: other",125 % of control
same,survivor count,"dose: 100.0 mg/kg/injection, schedule: Q04DX003 (sc), vehicle: other",2 of 6 on day 11
CN1C(=O)CC2(CCN(CCCC(=O)c3ccc(F)cc3)CC2)C1=O,T/C,"dose: 75.0 mg/kg/injection, schedule: Q04DX003 (sc), vehicle: suspension in saline",130 % of control [5 of 6 alive on day 11]
same,survivor count,"dose: 300.0 mg/kg/injection, schedule: Q04DX003 (sc), vehicle: suspension in saline",3 of 6 on day 11
CCC1CCCCN1C(=S)N/N=C(\C)c1ccccn1 (configuration not stated),survivor count,"dose: 150.0 mg/kg/injection, schedule: Q04DX003 (sc), vehicle: saline with Tween-80",0 of 6 on day 11
